Experimental data as given in paper PMC7794308.
These are yes or no findings as the source states them, for the method shown. For part of these data: Binding seen in cells or lysates may run through a third protein. Some entries that bind do so weakly or less than the wild type.

Protein sequences, listed by entry. Tags and fused reporters are not part of them.
UniProt Q9Y113: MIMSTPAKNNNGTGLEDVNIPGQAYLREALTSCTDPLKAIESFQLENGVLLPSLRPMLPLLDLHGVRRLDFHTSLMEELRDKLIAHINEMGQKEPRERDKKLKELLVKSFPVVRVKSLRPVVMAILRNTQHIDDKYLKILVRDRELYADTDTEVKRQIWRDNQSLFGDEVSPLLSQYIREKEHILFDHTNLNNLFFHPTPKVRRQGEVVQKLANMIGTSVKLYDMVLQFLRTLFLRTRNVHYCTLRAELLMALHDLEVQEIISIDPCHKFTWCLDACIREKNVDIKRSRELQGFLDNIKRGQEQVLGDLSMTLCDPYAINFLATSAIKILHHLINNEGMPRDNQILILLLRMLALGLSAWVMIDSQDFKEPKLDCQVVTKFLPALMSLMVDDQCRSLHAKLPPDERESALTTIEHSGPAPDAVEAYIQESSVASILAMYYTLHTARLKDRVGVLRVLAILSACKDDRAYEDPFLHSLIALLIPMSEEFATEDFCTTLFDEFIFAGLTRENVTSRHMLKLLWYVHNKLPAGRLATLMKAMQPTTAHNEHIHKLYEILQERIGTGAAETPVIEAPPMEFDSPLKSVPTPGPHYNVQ

Experiments:
[1] = molecular target: T1, NELF-E subunit of the Negative ELongation Factor (NELF) (Drosophila (endogenous in S2 cells)) (UniProt P92204); experiment: immunodepletion of nuclear extract; depletion of NELF-A, NELF-B or NELF-E with specific antibodies from the nuclear protein extract of uninduced Drosophila S2 cells; what is left in the extract read by Western blot; IgG depletion as control
T1 sequence: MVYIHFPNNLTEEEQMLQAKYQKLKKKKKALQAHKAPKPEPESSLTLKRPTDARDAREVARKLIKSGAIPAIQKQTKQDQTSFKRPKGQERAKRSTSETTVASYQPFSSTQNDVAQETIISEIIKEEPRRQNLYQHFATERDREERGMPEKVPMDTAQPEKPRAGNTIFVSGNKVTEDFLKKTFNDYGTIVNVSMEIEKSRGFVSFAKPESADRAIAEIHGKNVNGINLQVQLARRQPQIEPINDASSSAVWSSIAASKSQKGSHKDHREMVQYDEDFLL

[2] = molecular target: T2, NELF-A subunit of the Negative ELongation Factor (NELF) (Drosophila (endogenous in S2 cells)) (UniProt Q86NP2); experiment: co-IP; immunoprecipitation with antibodies against NELF-A, NELF-B, NELF-E and EcR from nuclear protein extracts of 1-h 20E- and DMSO-treated Drosophila S2 cells; Western blot; serum of non-immunized rabbits as negative control
T2 sequence: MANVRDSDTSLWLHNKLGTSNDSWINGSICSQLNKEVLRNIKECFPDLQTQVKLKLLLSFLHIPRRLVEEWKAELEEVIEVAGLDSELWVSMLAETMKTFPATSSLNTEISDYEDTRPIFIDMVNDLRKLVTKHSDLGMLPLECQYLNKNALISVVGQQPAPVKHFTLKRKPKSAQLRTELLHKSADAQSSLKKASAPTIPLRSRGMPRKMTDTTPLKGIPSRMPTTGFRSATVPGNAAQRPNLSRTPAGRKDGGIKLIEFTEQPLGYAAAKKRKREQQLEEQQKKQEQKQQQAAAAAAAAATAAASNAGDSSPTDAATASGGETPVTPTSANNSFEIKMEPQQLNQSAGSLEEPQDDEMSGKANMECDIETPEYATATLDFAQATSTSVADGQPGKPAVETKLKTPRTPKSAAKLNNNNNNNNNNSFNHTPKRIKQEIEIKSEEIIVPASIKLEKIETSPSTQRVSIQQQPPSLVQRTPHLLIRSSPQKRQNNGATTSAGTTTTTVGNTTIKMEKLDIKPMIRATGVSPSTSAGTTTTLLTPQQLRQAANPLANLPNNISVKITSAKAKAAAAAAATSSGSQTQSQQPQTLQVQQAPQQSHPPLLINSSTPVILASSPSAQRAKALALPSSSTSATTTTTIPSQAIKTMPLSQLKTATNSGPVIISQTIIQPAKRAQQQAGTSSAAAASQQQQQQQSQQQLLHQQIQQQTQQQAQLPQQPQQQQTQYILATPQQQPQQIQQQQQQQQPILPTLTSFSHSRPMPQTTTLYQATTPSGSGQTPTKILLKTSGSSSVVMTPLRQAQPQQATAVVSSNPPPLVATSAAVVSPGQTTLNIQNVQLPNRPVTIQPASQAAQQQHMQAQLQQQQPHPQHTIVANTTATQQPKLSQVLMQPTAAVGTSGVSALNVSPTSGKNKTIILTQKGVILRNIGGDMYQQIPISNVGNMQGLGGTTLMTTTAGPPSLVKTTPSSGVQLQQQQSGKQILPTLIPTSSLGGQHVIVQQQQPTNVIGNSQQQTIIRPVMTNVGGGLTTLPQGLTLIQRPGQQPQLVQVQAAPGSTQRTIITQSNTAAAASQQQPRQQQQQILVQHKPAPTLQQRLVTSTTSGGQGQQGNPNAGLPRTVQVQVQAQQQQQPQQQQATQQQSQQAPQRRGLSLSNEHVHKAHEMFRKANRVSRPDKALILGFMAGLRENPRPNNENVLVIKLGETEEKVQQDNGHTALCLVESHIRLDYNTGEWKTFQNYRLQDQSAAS

[3] = molecular target: NELF-B subunit of the Negative ELongation Factor (NELF) (Drosophila (endogenous in S2 cells)) (UniProt Q9Y113); experiment: immunodepletion of nuclear extract; depletion of NELF-A, NELF-B or NELF-E with specific antibodies from the nuclear protein extract of uninduced Drosophila S2 cells; what is left in the extract read by Western blot; IgG depletion as control
[4] = molecular target: T3, ecdysone receptor (EcR) (Drosophila (endogenous in S2 cells)) (UniProt P34021); experiment: co-IP; immunoprecipitation with antibodies against NELF-A, NELF-B, NELF-E and EcR from nuclear protein extract of uninduced Drosophila S2 cells from which NELF-B had been depleted; Western blot
T3 sequence: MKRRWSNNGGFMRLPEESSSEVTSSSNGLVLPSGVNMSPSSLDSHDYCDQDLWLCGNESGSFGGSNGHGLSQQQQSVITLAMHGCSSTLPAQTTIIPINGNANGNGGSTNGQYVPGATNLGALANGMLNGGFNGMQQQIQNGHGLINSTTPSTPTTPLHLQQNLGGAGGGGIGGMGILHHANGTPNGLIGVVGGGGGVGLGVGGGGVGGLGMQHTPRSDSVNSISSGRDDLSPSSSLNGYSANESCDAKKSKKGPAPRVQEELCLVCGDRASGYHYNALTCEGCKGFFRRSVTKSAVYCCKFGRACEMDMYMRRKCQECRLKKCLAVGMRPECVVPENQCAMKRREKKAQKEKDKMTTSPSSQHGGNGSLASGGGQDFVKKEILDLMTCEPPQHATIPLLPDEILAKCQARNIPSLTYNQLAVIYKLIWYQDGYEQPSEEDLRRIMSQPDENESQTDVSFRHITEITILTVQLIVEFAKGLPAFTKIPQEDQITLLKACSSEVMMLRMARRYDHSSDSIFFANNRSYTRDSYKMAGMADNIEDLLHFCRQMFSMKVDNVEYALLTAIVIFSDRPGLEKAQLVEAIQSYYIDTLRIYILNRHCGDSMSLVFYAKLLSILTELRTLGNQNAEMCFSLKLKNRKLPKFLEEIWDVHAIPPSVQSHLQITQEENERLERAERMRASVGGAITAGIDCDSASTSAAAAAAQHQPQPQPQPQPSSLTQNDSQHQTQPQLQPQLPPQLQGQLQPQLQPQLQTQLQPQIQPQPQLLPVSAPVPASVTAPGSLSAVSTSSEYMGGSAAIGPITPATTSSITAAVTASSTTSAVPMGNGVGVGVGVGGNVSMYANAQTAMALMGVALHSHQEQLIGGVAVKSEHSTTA

[5] = molecular target: T3, ecdysone receptor (EcR) (Drosophila (endogenous in S2 cells)); experiment: co-IP; immunoprecipitation with antibodies against NELF-A, NELF-B, NELF-E and EcR from nuclear protein extracts of 1-h 20E- and DMSO-treated Drosophila S2 cells; Western blot; serum of non-immunized rabbits as negative control

**Q.** For “NELF-B subunit of the Negative ELongation Factor (NELF) (from UniProt Q9Y113 1-594)”, which binding [1] is on record?
**A.** binds

B1: ecdysone receptor (EcR) (receptor, UniProt P34021 1-878)
chain: MKRRWSNNGGFMRLPEESSSEVTSSSNGLVLPSGVNMSPSSLDSHDYCDQDLWLCGNESGSFGGSNGHGLSQQQQSVITLAMHGCSSTLPAQTTIIPINGNANGNGGSTNGQYVPGATNLGALANGMLNGGFNGMQQQIQNGHGLINSTTPSTPTTPLHLQQNLGGAGGGGIGGMGILHHANGTPNGLIGVVGGGGGVGLGVGGGGVGGLGMQHTPRSDSVNSISSGRDDLSPSSSLNGYSANESCDAKKSKKGPAPRVQEELCLVCGDRASGYHYNALTCEGCKGFFRRSVTKSAVYCCKFGRACEMDMYMRRKCQECRLKKCLAVGMRPECVVPENQCAMKRREKKAQKEKDKMTTSPSSQHGGNGSLASGGGQDFVKKEILDLMTCEPPQHATIPLLPDEILAKCQARNIPSLTYNQLAVIYKLIWYQDGYEQPSEEDLRRIMSQPDENESQTDVSFRHITEITILTVQLIVEFAKGLPAFTKIPQEDQITLLKACSSEVMMLRMARRYDHSSDSIFFANNRSYTRDSYKMAGMADNIEDLLHFCRQMFSMKVDNVEYALLTAIVIFSDRPGLEKAQLVEAIQSYYIDTLRIYILNRHCGDSMSLVFYAKLLSILTELRTLGNQNAEMCFSLKLKNRKLPKFLEEIWDVHAIPPSVQSHLQITQEENERLERAERMRASVGGAITAGIDCDSASTSAAAAAAQHQPQPQPQPQPSSLTQNDSQHQTQPQLQPQLPPQLQGQLQPQLQPQLQTQLQPQIQPQPQLLPVSAPVPASVTAPGSLSAVSTSSEYMGGSAAIGPITPATTSSITAAVTASSTTSAVPMGNGVGVGVGVGGNVSMYANAQTAMALMGVALHSHQEQLIGGVAVKSEHSTTA
**Q.** How did the binding [2] turn out when B1 was run?
**A.** binds

B2: NELF-E subunit of the Negative ELongation Factor (NELF) (protein, UniProt P92204 1-280)
chain: MVYIHFPNNLTEEEQMLQAKYQKLKKKKKALQAHKAPKPEPESSLTLKRPTDARDAREVARKLIKSGAIPAIQKQTKQDQTSFKRPKGQERAKRSTSETTVASYQPFSSTQNDVAQETIISEIIKEEPRRQNLYQHFATERDREERGMPEKVPMDTAQPEKPRAGNTIFVSGNKVTEDFLKKTFNDYGTIVNVSMEIEKSRGFVSFAKPESADRAIAEIHGKNVNGINLQVQLARRQPQIEPINDASSSAVWSSIAASKSQKGSHKDHREMVQYDEDFLL
**Q.** Which binding [3] does the source give for B2 here?
**A.** binds

B3: NELF-A subunit of the Negative ELongation Factor (NELF) (protein, UniProt Q86NP2 1-1251)
chain: MANVRDSDTSLWLHNKLGTSNDSWINGSICSQLNKEVLRNIKECFPDLQTQVKLKLLLSFLHIPRRLVEEWKAELEEVIEVAGLDSELWVSMLAETMKTFPATSSLNTEISDYEDTRPIFIDMVNDLRKLVTKHSDLGMLPLECQYLNKNALISVVGQQPAPVKHFTLKRKPKSAQLRTELLHKSADAQSSLKKASAPTIPLRSRGMPRKMTDTTPLKGIPSRMPTTGFRSATVPGNAAQRPNLSRTPAGRKDGGIKLIEFTEQPLGYAAAKKRKREQQLEEQQKKQEQKQQQAAAAAAAAATAAASNAGDSSPTDAATASGGETPVTPTSANNSFEIKMEPQQLNQSAGSLEEPQDDEMSGKANMECDIETPEYATATLDFAQATSTSVADGQPGKPAVETKLKTPRTPKSAAKLNNNNNNNNNNSFNHTPKRIKQEIEIKSEEIIVPASIKLEKIETSPSTQRVSIQQQPPSLVQRTPHLLIRSSPQKRQNNGATTSAGTTTTTVGNTTIKMEKLDIKPMIRATGVSPSTSAGTTTTLLTPQQLRQAANPLANLPNNISVKITSAKAKAAAAAAATSSGSQTQSQQPQTLQVQQAPQQSHPPLLINSSTPVILASSPSAQRAKALALPSSSTSATTTTTIPSQAIKTMPLSQLKTATNSGPVIISQTIIQPAKRAQQQAGTSSAAAASQQQQQQQSQQQLLHQQIQQQTQQQAQLPQQPQQQQTQYILATPQQQPQQIQQQQQQQQPILPTLTSFSHSRPMPQTTTLYQATTPSGSGQTPTKILLKTSGSSSVVMTPLRQAQPQQATAVVSSNPPPLVATSAAVVSPGQTTLNIQNVQLPNRPVTIQPASQAAQQQHMQAQLQQQQPHPQHTIVANTTATQQPKLSQVLMQPTAAVGTSGVSALNVSPTSGKNKTIILTQKGVILRNIGGDMYQQIPISNVGNMQGLGGTTLMTTTAGPPSLVKTTPSSGVQLQQQQSGKQILPTLIPTSSLGGQHVIVQQQQPTNVIGNSQQQTIIRPVMTNVGGGLTTLPQGLTLIQRPGQQPQLVQVQAAPGSTQRTIITQSNTAAAASQQQPRQQQQQILVQHKPAPTLQQRLVTSTTSGGQGQQGNPNAGLPRTVQVQVQAQQQQQPQQQQATQQQSQQAPQRRGLSLSNEHVHKAHEMFRKANRVSRPDKALILGFMAGLRENPRPNNENVLVIKLGETEEKVQQDNGHTALCLVESHIRLDYNTGEWKTFQNYRLQDQSAAS
**Q.** With B3 as the molecule, how does the binding [4] read?
**A.** binds

**Q.** And the binding [5]?
**A.** binds

**Q.** What about the binding [1] of the same molecule?
**A.** binds
